One test concerns the target myc-tagged SOX2 (UniProt P48432). The test is described as follows: co-IP; HEK cells co-transfected with tagged constructs, harvested 24 h later; total cell extract in 20 mM Tris pH8, 137 mM NaCl, 10 mM EDTA, 1% NP40, 10% glycerol; antibodies against myc or FLAG 2 h at 4°C, protein G beads; Western blot.
Test [1] deals with full length CUX1 with an N-terminal myc-tag and a C-terminal HA-tag (UniProt P39880). As to the kind of experiment: co-IP; HEK cells transfected with myc-CUX1-HA alone or together with FLAG-SOX2; extracts precipitated with one of two CUX1 antibodies (C-terminus peptide or aa521-621); blot with FLAG antibody.
Test [2] addresses FLAG-tagged SOX2 (full length SOX2, F-SOX2-WT) (UniProt P48432). The test is described as follows: co-IP; HEK cells co-transfected with tagged constructs, harvested 24 h later; total cell extract in 20 mM Tris pH8, 137 mM NaCl, 10 mM EDTA, 1% NP40, 10% glycerol; antibodies against myc or FLAG 2 h at 4°C, protein G beads; Western blot. A general note: Immunoblotting shows a protein as a band on a membrane.

Chains of the proteins cited; added tags and fusions are not shown.
UniProt P48432: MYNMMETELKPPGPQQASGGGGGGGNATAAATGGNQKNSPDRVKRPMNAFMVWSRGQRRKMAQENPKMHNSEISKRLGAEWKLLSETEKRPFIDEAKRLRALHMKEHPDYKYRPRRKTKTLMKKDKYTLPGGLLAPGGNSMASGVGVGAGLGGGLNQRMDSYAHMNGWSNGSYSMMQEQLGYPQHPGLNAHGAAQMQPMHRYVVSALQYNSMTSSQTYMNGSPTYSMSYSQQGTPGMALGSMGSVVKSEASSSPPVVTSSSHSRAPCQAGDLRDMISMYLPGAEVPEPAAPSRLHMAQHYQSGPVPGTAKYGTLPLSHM
UniProt Q14839: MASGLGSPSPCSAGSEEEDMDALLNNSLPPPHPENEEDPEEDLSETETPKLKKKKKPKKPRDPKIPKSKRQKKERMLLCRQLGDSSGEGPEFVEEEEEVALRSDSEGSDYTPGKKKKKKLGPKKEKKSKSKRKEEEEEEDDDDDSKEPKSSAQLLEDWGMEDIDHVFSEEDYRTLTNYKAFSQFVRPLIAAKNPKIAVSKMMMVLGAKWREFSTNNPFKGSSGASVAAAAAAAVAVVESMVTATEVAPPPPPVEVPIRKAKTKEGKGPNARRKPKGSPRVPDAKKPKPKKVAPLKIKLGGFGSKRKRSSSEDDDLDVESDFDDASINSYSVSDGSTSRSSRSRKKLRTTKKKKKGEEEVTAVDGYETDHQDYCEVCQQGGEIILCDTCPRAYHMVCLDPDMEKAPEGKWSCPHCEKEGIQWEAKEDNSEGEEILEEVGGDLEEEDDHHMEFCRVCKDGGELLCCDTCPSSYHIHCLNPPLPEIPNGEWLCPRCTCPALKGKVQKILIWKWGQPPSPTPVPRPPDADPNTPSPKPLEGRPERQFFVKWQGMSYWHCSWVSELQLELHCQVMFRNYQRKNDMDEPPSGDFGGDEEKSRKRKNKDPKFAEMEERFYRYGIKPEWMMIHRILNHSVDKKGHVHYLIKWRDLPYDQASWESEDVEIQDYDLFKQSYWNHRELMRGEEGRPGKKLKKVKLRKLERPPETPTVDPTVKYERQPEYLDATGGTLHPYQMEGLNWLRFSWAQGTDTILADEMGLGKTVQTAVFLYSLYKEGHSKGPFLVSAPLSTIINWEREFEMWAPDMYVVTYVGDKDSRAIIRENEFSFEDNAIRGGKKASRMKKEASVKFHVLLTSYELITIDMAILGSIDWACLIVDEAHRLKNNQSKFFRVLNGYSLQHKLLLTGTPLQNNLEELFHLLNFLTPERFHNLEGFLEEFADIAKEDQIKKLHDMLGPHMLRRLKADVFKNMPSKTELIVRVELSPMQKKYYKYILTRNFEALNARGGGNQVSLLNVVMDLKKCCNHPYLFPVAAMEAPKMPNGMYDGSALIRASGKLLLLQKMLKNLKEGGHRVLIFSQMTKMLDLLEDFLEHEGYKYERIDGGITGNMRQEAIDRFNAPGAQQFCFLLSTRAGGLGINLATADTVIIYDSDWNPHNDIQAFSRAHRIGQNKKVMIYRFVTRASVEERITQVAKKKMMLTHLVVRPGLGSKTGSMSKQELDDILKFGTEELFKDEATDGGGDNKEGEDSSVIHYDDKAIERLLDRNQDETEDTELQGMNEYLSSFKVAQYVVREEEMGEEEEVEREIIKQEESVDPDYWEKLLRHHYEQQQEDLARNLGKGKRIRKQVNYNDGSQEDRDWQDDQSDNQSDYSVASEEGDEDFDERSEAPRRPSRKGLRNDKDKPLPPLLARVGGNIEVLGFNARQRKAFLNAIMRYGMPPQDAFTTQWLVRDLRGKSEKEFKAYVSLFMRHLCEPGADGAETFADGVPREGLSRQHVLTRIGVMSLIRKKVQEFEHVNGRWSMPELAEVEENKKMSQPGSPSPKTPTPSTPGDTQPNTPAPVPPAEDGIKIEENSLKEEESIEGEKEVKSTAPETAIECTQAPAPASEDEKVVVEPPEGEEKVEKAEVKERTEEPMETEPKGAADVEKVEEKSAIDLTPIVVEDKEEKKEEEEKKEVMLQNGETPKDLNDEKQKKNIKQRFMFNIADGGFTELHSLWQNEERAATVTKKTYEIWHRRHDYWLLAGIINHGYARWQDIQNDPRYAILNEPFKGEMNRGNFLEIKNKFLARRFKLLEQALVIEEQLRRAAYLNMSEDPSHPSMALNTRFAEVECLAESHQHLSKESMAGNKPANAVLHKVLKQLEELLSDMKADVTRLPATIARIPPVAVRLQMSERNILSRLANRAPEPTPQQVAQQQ

Results are given in words; binding and its absence hold for the method and conditions named. In cells and extracts the contact can be indirect. Some entries that bind do so weakly or less than the wild type.

For “FLAG-tagged CHD4 (from UniProt Q14839 1-1912)”, the binding entry in the test with myc-tagged SOX2 is “binds”.
For the molecule “FLAG-tagged SOX2 (full length SOX2, F-SOX2-WT) (from UniProt P48432 1-319)”, the binding entry in test [1] is reported as “binds”.

B1: CUX1 879-1336 (domain or fragment, UniProt P39880 879-1336)
chain: WKEWPSAESPYSQSSELSLTGASRSETPQNSPLPSSPIVPMSKPTKPSVPPLTPEQYEVYMYQEVDTIELTRQVKEKLAKNGICQRIFGEKVLGLSQGSVSDMLSRPKPWSKLTQKGREPFIRMQLWLNGELGQGVLPVQGQQQGPVLHSVTSLQDPLQQGCVSSESTPKTSASCSPAPESPMSSSESVKSLTELVQQPCPPIEASKDSKPPEPSDPPASDSQPTTPLPLSGHSALSIQELVAMSPELDTYGITKRVKEVLTDNNLGQRLFGETILGLTQGSVSDLLARPKPWHKLSLKGREPFVRMQLWLNDPNNVEKLMDMKRMEKKAYMKRRHSSVSDSQPCEPPSVGTEYSQGASPQPQHQLKKPRVVLAPEEKEALKRAYQQKPYPSPKTIEDLATQLNLKTSTVINWFHNYRSRIRRELFIEEIQAGSQGQAGASDSPSARSGRAAPSSEGD
For the molecule B1, in test [2], the binding result is “binds”.

B2: CUX1 659-1505 (domain or fragment, UniProt P39880 659-1505)
chain: RIRASETGSDEAIKSILEQAKRELQVQKTAEPAQPSSASGSGNSDDAIRSILQQARREMEAQQAALDPALKQAPLSQSDITILTPKLLSTSPMPTVSSYPPLAISLKKPSAAPEAGASALPNPPALKKEAQDAPGLDPQGAADCAQGVLRQVKNEVGRSGAWKDHWWSAVQPERRNAASSEEAKAEETGGGKEKGSGGSGGGSQPRAERSQLQGPSSSEYWKEWPSAESPYSQSSELSLTGASRSETPQNSPLPSSPIVPMSKPTKPSVPPLTPEQYEVYMYQEVDTIELTRQVKEKLAKNGICQRIFGEKVLGLSQGSVSDMLSRPKPWSKLTQKGREPFIRMQLWLNGELGQGVLPVQGQQQGPVLHSVTSLQDPLQQGCVSSESTPKTSASCSPAPESPMSSSESVKSLTELVQQPCPPIEASKDSKPPEPSDPPASDSQPTTPLPLSGHSALSIQELVAMSPELDTYGITKRVKEVLTDNNLGQRLFGETILGLTQGSVSDLLARPKPWHKLSLKGREPFVRMQLWLNDPNNVEKLMDMKRMEKKAYMKRRHSSVSDSQPCEPPSVGTEYSQGASPQPQHQLKKPRVVLAPEEKEALKRAYQQKPYPSPKTIEDLATQLNLKTSTVINWFHNYRSRIRRELFIEEIQAGSQGQAGASDSPSARSGRAAPSSEGDSCDGVEATEGPGSADTEEPKSQGEAEREEVPRPAEQTEPPPSGTPGPDDARDDDHEGGPVEGPGPLPSPASATATAAPAAPEDAATSAAAAPGEGPAAPSSAPPPSNSSSSSAPRRPSSLQSLFGLPEAAGARDSRDNPLRKKKAANLNSIIHRLEKAASREEPIEWEF
In the case of B2, the binding result in test [2] is “binds”.

Source of the values: paper PMC9124971.
